Results from patent publication US20240245079A1, “METHOD FOR MANUFACTURING HEATED FOOD” (Nisshin Seifun Welna Inc., priority 2021, published 2024).
Some results were stated once for a whole list of compounds, not compound by compound. At least one compound was matched to its structure with a doubt left.

Experiment: Method for measuring solubility of metal salt
Conditions: 100 g water at pH 7, 20° C., shaken 1 hour; listed as magnesium oxide
Experimental: In a flask are placed 100 g of water at pH 7 and 2 g of a metal salt being tested. The flask is tightly closed and shaken in a thermostat at 20° C. for 1 hour. The contents of the flask are filtered to collect the undissolved metal salt, which is dried and weighed. The weight (g) of the undissolved metal salt is subtracted from the original weight (2 g) to obtain the solubility of the metal salt.

In the case of `[O]=[Mg]` [Magnesium oxide], the Solubility is reported as “not more than 0.1 g/100 g water”.
